According to PubChem BioAssay AID588497 (NMMLSC, 2011):
The whole screen tested about 360,000 compounds, of which about 780 (0.22%) were called active. The inconclusive results got no clear call from the source; some entries with a clear call stand among them for comparison. Cut-off read from the data, not from the text of the source: active = inhibition above about 35% (passing the limit was not always enough); inconclusive = no clear call, values can overlap the other calls.

These compounds were tested on Botulinum neurotoxin type F light chain protease (Clostridium botulinum) (assay: BoNT/F light chain protease inhibitors, primary screen, biochemical, flow cytometry, MLPCN library (AID 588497; note: plate controls were buffer without enzyme for full effect and enzyme alone for no effect)). Conditions: Multiplex microsphere protease cleavage assay, at 10 µM, stronger effect = higher value.

SMILES | inhibition
COc1ccc(-c2csc(NC(=S)NC(=O)/C=C/c3ccco3)n2)cc1Br | inconclusive: -40.4%
CN(CC(=O)NC(=O)Nc1ccccc1F)Cc1ccccc1 | inconclusive: -3.9%
O=C(NCc1ccncc1)c1cn(-c2ccccc2)nc1-c1cccnc1 | inactive: -1.2%
CCc1cc[n+](-c2nc([O-])sc2C=O)cc1 | inactive: -7.5%
O=C(Cn1c(=O)c2sccc2n(Cc2cccc([N+](=O)[O-])c2)c1=O)NCCc1ccccc1 | inactive: -5.5%
O=C(CN1CCCC1)Nc1c(C(=O)C2CC2)oc2ccccc12 | inconclusive: 56.6%
O=C(Nc1ccc(OC(F)F)cc1)c1cc(S(=O)(=O)N2CCOCC2)ccc1N1CCCC1 | inconclusive: 4.3%
CSc1ccccc1NC(=O)COC(=O)c1c[nH]c(=O)[nH]c1=O | inactive: -0.2%
CCOCCOC(=O)C1=C(C)NC(=O)NC1c1cc2c(cc1Br)OCO2 (configuration not stated) | inconclusive: 7.6%
COc1ccc(-n2c(=O)/c(=C\c3cccs3)s/c2=C(/C#N)C(=O)NCCN2CCOCC2)cc1 | inactive: -1.8%
Cc1cc(C)c(C(=O)c2ccc(C(=O)N3CCCCC3)cc2)c(C)c1 | inactive: -7.4%
Clc1ccccc1CSc1nnc([C@@H]2CCCN2)o1 | inconclusive: -29.8%
O=C(CN(CC1CCCO1)C(=O)CNS(=O)(=O)c1ccccc1)NCc1ccccc1 (configuration not stated) | inconclusive: -11.5%
COc1ccccc1CC(=O)Nc1cc2oc3ccccc3c2cc1OC | active: 34.5%
CCCC(c1nnnn1CS(=O)(=O)c1ccc(C)cc1)N1CCN(c2ccccc2)CC1 (configuration not stated) | inconclusive: -54.4%
CCc1cccc(NS(=O)(=O)c2ccc3c(c2)n(C)c(=O)n3C)c1 | inconclusive: 14.6%
COc1ccc(N(CC(=O)N2CCN(Cc3ccccc3)CC2)S(C)(=O)=O)cc1 | inconclusive: 14.1%
CC1(C)NC(=S)NC1=S | inactive: -3.9%
NC(=O)c1cnn2c(C(F)(F)F)cc(-c3ccc(F)cc3)nc12 | inactive: -2%

SMILES | inhibition
Cc1ccc(S(=O)(=O)N[C@@H](Cc2ccccc2)C(=O)N2CCC(C(=O)N[C@@H](CCC(N)=O)C(=O)O)CC2)cc1 | inconclusive: 6.9%
Cc1ccc2nc3c(c(Nc4ccccc4)c2c1)CCC3 | inconclusive: 62.6%
COc1ccc(C(=O)C[n+]2cc(Br)cc3ccccc32)cc1[N+](=O)[O-] | active: 51.6%
COc1ccc(Cl)c2sc(N3CCN(C(=O)c4ccco4)CC3)nc12 | inconclusive: -2.1%
Nc1nnn(CC(=O)N/N=C/c2ccc(Cl)cc2Cl)n1 | inconclusive: 43.6%
COc1cc([N+](=O)[O-])ccc1NC(=O)CCCOc1ccc(C)cc1 | inconclusive: 27.7%
Cc1cc(C(=O)COc2ccc(-c3nnco3)cc2)c(C)n1Cc1ccccc1 | inconclusive: 1.8%
COc1ccc(C(=O)NCc2csc(-c3cccs3)n2)cc1 | inconclusive: -1.5%
COC(=O)N/N=C/c1cn(CCOc2ccccc2)c2ccccc12 | inconclusive: -8.9%
COCCCN(C(=O)c1ccco1)c1nc(-c2ccc(OC)cc2)cs1 | inconclusive: -2.5%
CCn1nc(NC(=O)Cc2ccc(OC)cc2)c2cc3cc(C)ccc3nc21 | inconclusive: -17.2%
c1ccc(OCCN2CCN(C(c3ccccc3)c3ccccc3)CC2)cc1 | inconclusive: -10.4%
O=C(COC(=O)Cc1ccccc1F)NC(=O)NC1CCCC1 | inactive: -2.3%
Cc1cc(C)c2c(N)c(C(=O)c3ccccc3)oc2n1 | inactive: 4%
S=C1SCN(CCc2ccccc2)CN1CCc1ccccc1 | inactive: -7.9%
O=C(c1cnn2c(C(F)(F)F)cc(-c3ccc4c(c3)OCO4)nc12)N1CCCCC1 | inactive: 8.4%
CCCn1nnnc1NCc1ccccc1Cl | inactive: -15.7%
CCc1ccccc1NC(=O)CSc1nc2n[nH]c(C)c2c(=N)n1-c1ccc(OC)cc1 | inactive: 3.1%
CCCCCCCCN1C(=O)[C@H](CC(=O)NCCCOC)C[C@@]2(C(=O)OC)CCCCC=C12 | inactive: -3.2%

SMILES | inhibition
CCC(=NNS(=O)(=O)c1ccc(C)cc1)c1ccc(OC)c(C)c1 | inactive: 3.3%
COC(=O)c1sc(N)c(C(=O)OC)c1CSc1nnnn1C | inconclusive: -6.2%
CCOC(=O)C1=C(COC(=O)CNC(=O)c2ccccc2F)NC(=O)NC1C (configuration not stated) | inconclusive: 1.8%
c1ccc(Cn2ncc3c(N4CCN(c5ccccc5)CC4)ncnc32)cc1 | inactive: -6.2%
CN(C)CCCNC(=S)Nc1ccc(Br)cc1 | inconclusive: 16.9%
CCOC(=O)CCn1c(=S)n(CCC(=O)OCC)c2ccccc21 | inconclusive: 1.4%
CC(NCCC1(C(C)C)CCOC(C)(C)C1)c1cccs1 (configuration not stated) | inconclusive: -13.3%
C[C@H](CO)N1C[C@H](C)[C@@H](CN(C)C(=O)NC2CCCCC2)Oc2ccc(NC(=O)Nc3ccccc3)cc2C1=O | inactive: -6.8%
O=C(O)CSc1nnc(-c2cccc(S(=O)(=O)N3CCOCC3)c2)n1-c1ccc(F)cc1 | inconclusive: 4.7%
COC(=O)c1[nH]c2cc(OC)c(OC)cc2c1/C=N/Nc1ccccc1 | inconclusive: -18.7%
CCC(C)N(C(=O)CSc1ccc(NC(C)=O)cc1)C1CCS(=O)(=O)C1 (configuration not stated) | inactive: 1.9%
Cc1ccccc1CC(=O)N1CCCC1 | inconclusive: -2.7%
O=C(NN1CCOCC1)c1cc(-c2cccs2)nc2ccccc12 | inactive: -3.6%
Cc1onc(-c2ccccc2)c1C(=O)N(Cc1ccccn1)Cc1ccccn1 | inconclusive: 30.3%
COc1ccc(NC(=O)CSc2nnc(-c3ccncc3)o2)c(OC)c1 | inconclusive: 2.5%
NS(=O)(=O)c1ccc(CCNC(=O)Cc2ccc(Cl)cc2)cc1 | inconclusive: 22.8%
CCOc1ccc(/C=C(\C#N)C(=O)Nc2ccccn2)cc1 | inconclusive: 27.6%
Cc1onc(-c2ccccc2Cl)c1C(=O)NC(=S)Nc1ccc(C(C)(C)C)cc1 | inconclusive: 0.7%
C=CCc1cccc2cc(C(=O)N3CCOCC3)c(=O)oc12 | inconclusive: 8.1%

Part of the list above in order of SMILES length, falling.
SMILES | inhibition
Cc1onc(-c2ccccc2Cl)c1C(=O)NC(=S)Nc1ccc(C(C)(C)C)cc1 | inconclusive: 0.7%
CCOC(=O)C1=C(COC(=O)CNC(=O)c2ccccc2F)NC(=O)NC1C (configuration not stated) | inconclusive: 1.8%
CCOC(=O)CCn1c(=S)n(CCC(=O)OCC)c2ccccc21 | inconclusive: 1.4%
